In one test the target is Myc-DNMT1 (WT) (human) (UniProt P26358). Description: co-IP; C4-2 and MDA-MB-231 cells transfected with Myc-DNMT1 (WT) or Myc-DNMT1 (S714A); Myc-tagged proteins immunoprecipitated with c-Myc antibody, blot of endogenous GSK3β.
In test [1] the target is Myc-DNMT1 (S714A) (human) (UniProt P26358). The test is described as above.

Chains of the proteins cited; added tags and fusions are not shown. Lines headed by an entry give the natural chain unless they say otherwise; changes in a name come on top.
UniProt P26358: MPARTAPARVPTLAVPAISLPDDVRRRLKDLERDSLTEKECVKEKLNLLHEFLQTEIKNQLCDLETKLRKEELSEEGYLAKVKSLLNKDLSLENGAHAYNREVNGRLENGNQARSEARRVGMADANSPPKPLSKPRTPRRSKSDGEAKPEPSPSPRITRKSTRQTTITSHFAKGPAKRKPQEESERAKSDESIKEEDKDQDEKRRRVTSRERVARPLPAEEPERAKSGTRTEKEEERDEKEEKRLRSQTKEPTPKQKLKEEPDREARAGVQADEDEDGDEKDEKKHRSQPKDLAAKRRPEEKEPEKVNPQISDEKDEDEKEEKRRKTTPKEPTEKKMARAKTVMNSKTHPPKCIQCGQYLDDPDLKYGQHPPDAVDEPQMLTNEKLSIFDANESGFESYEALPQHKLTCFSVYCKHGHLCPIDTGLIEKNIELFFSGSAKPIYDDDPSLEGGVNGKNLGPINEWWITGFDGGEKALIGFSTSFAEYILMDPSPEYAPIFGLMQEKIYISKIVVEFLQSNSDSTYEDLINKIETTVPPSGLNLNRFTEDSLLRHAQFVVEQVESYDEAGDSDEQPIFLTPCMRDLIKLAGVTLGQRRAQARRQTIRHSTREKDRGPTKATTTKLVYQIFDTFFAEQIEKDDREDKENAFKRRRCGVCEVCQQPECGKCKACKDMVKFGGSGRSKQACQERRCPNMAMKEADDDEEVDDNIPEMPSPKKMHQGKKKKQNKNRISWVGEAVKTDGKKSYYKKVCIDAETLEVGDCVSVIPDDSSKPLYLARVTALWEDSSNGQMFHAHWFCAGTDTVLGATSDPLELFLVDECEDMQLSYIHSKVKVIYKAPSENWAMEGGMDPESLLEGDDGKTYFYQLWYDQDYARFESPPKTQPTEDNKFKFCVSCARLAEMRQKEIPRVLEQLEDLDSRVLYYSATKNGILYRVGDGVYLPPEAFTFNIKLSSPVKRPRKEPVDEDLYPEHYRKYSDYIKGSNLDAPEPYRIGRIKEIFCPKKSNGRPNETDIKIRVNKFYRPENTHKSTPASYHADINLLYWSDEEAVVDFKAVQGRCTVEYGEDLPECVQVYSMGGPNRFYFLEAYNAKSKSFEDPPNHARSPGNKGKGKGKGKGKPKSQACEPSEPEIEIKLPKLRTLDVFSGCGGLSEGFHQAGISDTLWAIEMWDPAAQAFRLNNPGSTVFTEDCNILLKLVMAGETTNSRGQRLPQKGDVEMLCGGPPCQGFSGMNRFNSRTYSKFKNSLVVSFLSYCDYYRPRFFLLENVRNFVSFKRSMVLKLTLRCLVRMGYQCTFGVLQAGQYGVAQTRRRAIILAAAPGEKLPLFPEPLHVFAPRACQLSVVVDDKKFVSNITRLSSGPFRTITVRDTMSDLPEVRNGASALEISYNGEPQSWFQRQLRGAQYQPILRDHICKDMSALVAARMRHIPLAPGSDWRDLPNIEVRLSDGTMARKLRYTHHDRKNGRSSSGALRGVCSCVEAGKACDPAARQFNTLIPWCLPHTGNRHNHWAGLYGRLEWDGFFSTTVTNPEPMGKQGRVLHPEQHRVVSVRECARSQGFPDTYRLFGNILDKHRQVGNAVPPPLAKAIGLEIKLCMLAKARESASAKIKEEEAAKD
UniProt P49841: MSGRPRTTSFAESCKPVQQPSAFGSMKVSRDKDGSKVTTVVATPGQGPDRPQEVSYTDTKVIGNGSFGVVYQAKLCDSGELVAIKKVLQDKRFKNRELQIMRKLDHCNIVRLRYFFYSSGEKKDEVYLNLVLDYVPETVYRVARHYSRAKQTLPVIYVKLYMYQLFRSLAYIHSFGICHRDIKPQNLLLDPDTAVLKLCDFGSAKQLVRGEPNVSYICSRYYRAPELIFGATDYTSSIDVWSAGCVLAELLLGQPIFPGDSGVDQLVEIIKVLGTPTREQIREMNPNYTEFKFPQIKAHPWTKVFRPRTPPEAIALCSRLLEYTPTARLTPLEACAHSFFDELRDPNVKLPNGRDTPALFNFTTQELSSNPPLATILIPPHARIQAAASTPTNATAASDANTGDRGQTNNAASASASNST

No constants are given. Whether binding was seen depends on the method and setting. Binding seen in cells or lysates may run through a third protein. Some entries that bind do so weakly or less than the wild type.

On to “GSK3β (from UniProt P49841 1-420) (enzyme)”, for which the binding result (with Myc-DNMT1 (WT) (human); in test [1]) was “binds” in each case.
